Data: publication PMC5353646, “Allosteric modulation of peroxisomal membrane protein recognition by farnesylation of the peroxisomal import receptor PEX19” (Nature Communications, 2017)
Results are given in words; binding and its absence hold for the method and conditions named.

B1: non-farnesylated human PEX19 C-terminal domain (residues 161-299) (domain or fragment, UniProt P40855 161-299)
chain: GMDEGDGEGNILPIMQSIMQNLLSKDVLYPSLKEITEKYPEWLQSHRESLPPEQFEKYQEQHSVMCKICEQFEAETPTDSETTQKARFEMVLDLMQQLQDLGHPPKELAGEMPPGLNFDLDALNLSGPPGASGEQCLIM
B2: farnesylated human PEX19 C-terminal domain (residues 161-299) (domain or fragment, UniProt P40855 161-299)
chain: B1 chain
modifications: farnesyl group on Cys296 (CaaX box)

Tests used:
[1] = target: non-farnesylated human PEX19 C-terminal domain (residues 161-299) (human) (UniProt P40855); assay: NMR 15N relaxation (tumbling correlation time); local correlation times from the 15N R2/R1 ratio, 298 K, 750 MHz; both purified
[2] = target: farnesylated human PEX19 C-terminal domain (residues 161-299) (human) (UniProt P40855); assay: as above

Row | Binder | binding [1] | binding [2]
1 | B1 | no binding | –
2 | B2 | – | no binding
